From the supplement of paper PMC4604168 (melanoma cell lines)
This is one part of the list. Repeats are few or missing, and single values can be far off.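 Cells were imaged in 1,536-well plates, and nuclei stained with an antibody against cleaved PARP were counted against all DNA-stained nuclei to give the apoptosis fraction. Screening doses were chosen to leave most cells alive, and resting and induced cleaved-PARP levels differ strongly between cell lines.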

System: MEL-HO
Test: cleaved PARP positive nuclei fraction relative to DMSO control; melanoma cells; higher = more apoptosis
Conditions: library dose: low library concentration; 72 h

Structure (SMILES) | cleaved PARP positive nuclei fraction [%]
CN(c1ncccc1CNc1nc(Nc2ccc3c(c2)CC(=O)N3)ncc1C(F)(F)F)S(C)(=O)=O + Cn1c(=O)n(-c2ccc(C(C)(C)C#N)cc2)c2c3cc(-c4cnc5ccccc5c4)ccc3ncc21 [NVP-BEZ235] (first compound 0.08 µM, partner dose 0.004 µM) | 65.3
NC(=O)c1ccc(N(C(N)=O)c2c(F)cccc2F)nc1-c1ccc(F)cc1F + CC(=O)c1c(C)c2cnc(Nc3ccc(N4CCNCC4)cn3)nc2n(C2CCCC2)c1=O [palbociclib] (first compound 0.4 µM, partner dose 0.04 µM) | 134
CN(c1ncccc1CNc1nc(Nc2ccc3c(c2)CC(=O)N3)ncc1C(F)(F)F)S(C)(=O)=O + CCCS(=O)(=O)Nc1ccc(F)c(C(=O)c2c[nH]c3ncc(Cl)cc23)c1F [PLX4720] (first compound 0.08 µM, partner dose 0.08 µM) | 89.4
CCCCCCCCc1ccc(CCC(N)(CO)CO)cc1 [fingolimod] + Nc1nc(F)nc2c1ncn2[C@@H]1O[C@H](CO)[C@@H](O)[C@@H]1O [fludarabine] (first compound 2 µM, partner dose 0.2 µM) | 102
CCCCCCCCc1ccc(CCC(N)(CO)CO)cc1 [fingolimod] + CC(=O)c1c(C)c2cnc(Nc3ccc(N4CCNCC4)cn3)nc2n(C2CCCC2)c1=O [palbociclib] (first compound 2 µM, partner dose 0.04 µM) | 134
CC(=O)O[C@@]12CO[C@@H]1C[C@H](O)[C@@]1(C)C(=O)[C@H](O)C3=C(C)[C@@H](OC(=O)[C@H](O)[C@@H](NC(=O)OC(C)(C)C)c4ccccc4)C[C@@](O)([C@@H](OC(=O)c4ccccc4)[C@H]21)C3(C)C [Docetaxel] + Cc1cc(Nc2cc(N3CCN(C)CC3)nc(/C=C/c3ccccc3)n2)n[nH]1 [ENMD2076] (first compound 0.0001 µM, partner dose 0.04 µM) | 173
CC1(C)CCC(c2ccc(Cl)cc2)=C(CN2CCN(c3ccc(C(=O)NS(=O)(=O)c4ccc(N[C@H](CCN5CCOCC5)CSc5ccccc5)c(S(=O)(=O)C(F)(F)F)c4)cc3)CC2)C1 + CCCS(=O)(=O)Nc1ccc(F)c(C(=O)c2c[nH]c3ncc(Cl)cc23)c1F [PLX4720] (first compound 0.4 µM, partner dose 0.08 µM) | 58
CC(=O)O[C@@]12CO[C@@H]1C[C@H](O)[C@@]1(C)C(=O)[C@H](O)C3=C(C)[C@@H](OC(=O)[C@H](O)[C@@H](NC(=O)OC(C)(C)C)c4ccccc4)C[C@@](O)([C@@H](OC(=O)c4ccccc4)[C@H]21)C3(C)C [Docetaxel] + Cn1c(Nc2ccc(C(F)(F)F)cc2)nc2cc(Oc3ccnc(-c4ncc(C(F)(F)F)[nH]4)c3)ccc21 [CHIR265] (first compound 0.0001 µM, partner dose 0.08 µM) | 76.8
Cn1sc(=O)n(Cc2ccccc2)c1=O + CC(C)C[C@H](NC(=O)[C@H](Cc1ccccc1)NC(=O)c1cnccn1)B(O)O [Bortezomib] (first compound 0.4 µM, partner dose 0.001 µM) | 41.2
COc1ccc(C2=N[C@@H](c3ccc(Cl)cc3)[C@@H](c3ccc(Cl)cc3)N2C(=O)N2CCNC(=O)C2)c(OC(C)C)c1 [Nutlin-3] + C=CCNC1=C2C[C@@H](C)C[C@H](OC)[C@H](O)[C@@H](C)/C=C(\C)[C@H](OC(N)=O)[C@@H](OC)/C=C\C=C(/C)C(=O)NC(=CC1=O)C2=O [Tanespimycin] (first compound 0.1 µM, partner dose 0.002 µM) | 42.1
C[C@@H](N)c1ccc(C(=O)Nc2ccnc3[nH]ccc23)cc1 + CC(C)C[C@H](NC(=O)[C@H](Cc1ccccc1)NC(=O)c1cnccn1)B(O)O [Bortezomib] (first compound 0.4 µM, partner dose 0.001 µM) | 71.8
C[C@]1(O)C[C@@H](c2nc(-c3ccc4ccc(-c5ccccc5)nc4c3)c3c(N)nccn32)C1 + CS(=O)(=O)CCNCc1ccc(-c2ccc3ncnc(Nc4ccc(OCc5cccc(F)c5)c(Cl)c4)c3c2)o1 [lapatinib] (first compound 0.4 µM, partner dose 0.8 µM) | 169

Looked up one by one from the entries so far, two records:
Structure (SMILES) | cleaved PARP positive nuclei fraction [%]
CC(=O)O[C@@]12CO[C@@H]1C[C@H](O)[C@@]1(C)C(=O)[C@H](O)C3=C(C)[C@@H](OC(=O)[C@H](O)[C@@H](NC(=O)OC(C)(C)C)c4ccccc4)C[C@@](O)([C@@H](OC(=O)c4ccccc4)[C@H]21)C3(C)C [Docetaxel] + Cn1c(Nc2ccc(C(F)(F)F)cc2)nc2cc(Oc3ccnc(-c4ncc(C(F)(F)F)[nH]4)c3)ccc21 [CHIR265] (first compound 0.0001 µM, partner dose 0.08 µM) | 76.8
CCCCCCCCc1ccc(CCC(N)(CO)CO)cc1 [fingolimod] + CC(=O)c1c(C)c2cnc(Nc3ccc(N4CCNCC4)cn3)nc2n(C2CCCC2)c1=O [palbociclib] (first compound 2 µM, partner dose 0.04 µM) | 134
